From PMC4505066, “Insights into the Recruitment of Class IIa Histone Deacetylases (HDACs) to the SMRT/NCoR Transcriptional Repression Complex” (The Journal of Biological Chemistry, 2015)
These are yes or no findings as the source states them, for the method shown. Binding calls can cover weak binding; strength is not graded here.

Molecular target: T1, wild type GSI motif peptide (…), SMRT amino acids 1450-1469 with an amino-terminal cysteine
T1 sequence (peptide, BODIPY-TMR coupled to the N-terminal cysteine): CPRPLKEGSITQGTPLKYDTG
Experiment: fluorescence polarisation; fluorescence anisotropy; BODIPY-TMR-labelled peptide at 1 uM, HDAC in 2-fold serial dilution; 1x PBS, 0.01% Triton X-100, 0.1 mg/ml BSA; one-site binding fit; in Fig. 4A HDAC4 also preincubated 30 min with inhibitor at 2:1 (suberoylanilide hydroxamic acid, trichostatin A, valproic acid, sodium butyrate); both purified

With “HDAC9 catalytic domain (domain or fragment)” as the substance, how does the binding read?
Its binding is “binds”.
